PubChem BioAssay AID1259405 – NCATS | 2018
The deposit covers about 50,000 reagents; this is a random part of them. About 4,000 of all reagents (8%) count as active. 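Mouse siRNA library applied to hamster cells; one well for each siRNA.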 A number with no mark means an inactive call. The numbers tell different reagents against one gene apart.

Purpose: 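Silenced genes that increase secreted GFP made by CHO cells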 (primary screen)
Cell system: Chinese hamster CHO-K1 ovary cells with stable secreted eGFP expression
Knock-down reagent: single siRNA against mouse genes, 0.8 pmol siRNA per well (2 µl of 400 nM stock)
Timing: 3 days
Detection: 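Per-well intracellular GFP measured by laser scanning cytometry, plus viability from ATP luminescence, each relative to plate median of non-targeting control wells, in %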
Direction: GFP, % of control: higher = more GFP per well, higher productivity; viability (ATP), % of control: higher = more viable cells (more ATP)
Active means: 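a knock-down is called active if GFP reaches 120% or more of non-targeting control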

no.	gene symbol	reagent	GFP, % of control	viability (ATP), % of control
1	Cbx5	1	94.4	74.9
2	Cbx5	2	81.7	55.6
3	Cbx5	3	63.3	61.6
4	Txnrd2	1	74.8	90.3
5	Txnrd2	2	61.2	83.1
6	Txnrd2	3	48.9	53.5
7	Pcdha10	1	92.6	106
8	Pcdha10	2	73	80.4
9	Pcdha10	3	70.2	62.3
10	Calcb	1	66.8	79
11	Calcb	2	87.9	71.9
12	Fbxl13	1	92.1	71.8
13	Fbxl13	2	87	80.5
14	Fbxl13	3	98.8	92
15	Tcp11	1	35.7	25.2
16	Tcp11	2	91.4	85.5
17	Tcp11	3	62.1	72.8
18	Kcna5	1	90.8	86
19	Kcna5	2	127 (active)	92.1
20	Kcna5	3	50.4	73.2
21	Dnaaf19	1	86	97.2
22	Dnaaf19	2	68.2	94.5
23	Dnaaf19	3	94.5	115
24	Cyp2a5	1	107	99.8
25	Cyp2a5	2	52.9	54.2
26	Cyp2a5	3	87	80.7
27	Polr3h	1	22.9	38.9
28	Polr3h	2	102	95.3
29	Polr3h	3	49.8	79.5
30	Tor4a	1	47	57.2
31	Tor4a	2	46	77.6
32	Tor4a	3	61.4	80.5
33	Ccl5	1	81	135
34	Ccl5	2	62.2	74
35	Sspo	1	45.7	62.7
36	Sspo	2	92	79.1
37	Sspo	3	72.1	50.2
38	Napb	1	57.5	65.4
39	Napb	2	67	36.6
40	Napb	3	67.3	42.4
41	Rmnd1	1	86.6	83.2
42	Rmnd1	2	112	104
43	Rmnd1	3	148 (active)	92
44	Gtf2h3	1	86.5	68.6
45	Gtf2h3	2	87.7	68.7
46	Grpel2	1	38.6	50.7
47	Grpel2	2	77.8	93.9
48	Grpel2	3	91.4	129
49	Chrng	1	79.3	114
50	Chrng	2	38.6	48.3
51	Chrng	3	88.5	81.1
52	Cul5	1	81.4	93.7
53	Cul5	2	64.8	48
54	Cul5	3	57	56.9
55	Med13l	1	66.8	67.9
56	Med13l	2	60.4	90.7
57	Med13l	3	82.4	114

Ordered by “GFP, % of control” (lowest first): 9 of the entries above.
gene symbol	reagent	GFP, % of control	viability (ATP), % of control
Sspo	1	45.7	62.7
Napb	1	57.5	65.4
Tor4a	3	61.4	80.5
Ccl5	2	62.2	74
Napb	2	67	36.6
Napb	3	67.3	42.4
Sspo	3	72.1	50.2
Ccl5	1	81	135
Sspo	2	92	79.1
